Test results reported in PubChem BioAssay AID1273 (Columbia University Molecular Screening Center, 2008).
Values joined by “and” are separate entries in the source; they are usually repeats but may differ in a detail not shown here. Identical values can stand only once. Some of the results follow. The main result of the screen is listed elsewhere. These columns were measured beside it and carry no call. Compounds called inactive in the main read-out are mostly missing here.

Experiment: insulin gene promoter suppression in islet cells – imaging, TRM-6 cells (human fetal islet line), eGFP reporter, cell count, primary screen (AID 1273;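 further: cells exposed to compound for 48 h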)
Details: measured here: cell count, toxicity, at 2 µM, reporter expression induced with tamoxifen

SMILES | normalized cell count
Cc1cc(C)n(-c2nc3c(c(=O)n(C)c(=O)n3C)n2CC(O)COc2ccccc2C)n1 (centres undefined) | 131%
O=C1c2ccccc2C2NC(=O)C3(CCCCC3)N12 (centres undefined) | 126%
CCn1cc(CNC(=O)c2cc(COc3ccc(F)cc3Cl)on2)cn1 | 93.3%
C=CCNc1ncnc2c1cnn2-c1cccc(C)c1 | 149%
CCc1ccc(-c2cn3c(n2)SCC3)cc1 | 79.3%
CC(=O)NC(c1ccccc1)c1nc2ccccc2[nH]1 (centres undefined) | 103%
CCn1cc(C(=O)N2CCc3ccccc32)c(=O)c2cc(S(=O)(=O)N3CCCC3)ccc21 | 148%
Cc1ccccc1OCc1nc2ccccc2[nH]1 | 182%
CCCCCn1nc(C(=O)OCC(=O)c2c(N)n(C)c(=O)n(C)c2=O)c2ccccc2c1=O | 95.6%
COc1cc(S(=O)(=O)Nc2ccc(C)cc2)ccc1N=Cc1c(C)[nH]n(-c2ccccc2)c1=O | 134%
CCSc1nc2ccccc2[nH]1 | 38% and 154%
Cc1cc2ccccc2nc1SCC(=O)N1c2ccccc2CC1C (centres undefined) | 60.3%
COc1ccc(-c2[nH]ncc2CNCCc2ncccc2C)cc1F | 114%
COc1ccccc1CN1C(=O)[C@@H]2C(CCC(N)=O)NC3(C(=O)Nc4c3ccc(Cl)c4C)[C@@H]2C1=O (some centres undefined) | 86%
O=C(CSc1n[nH]c(-c2ccc(S(=O)(=O)N3CCCCC3)cc2)n1)Nc1nccs1 | 108%
COc1ccc(Cn2nnc3c(=O)[nH]c(C(=O)NCCc4ccc(F)cc4)nc32)cc1OC | 60.5%
O=C(CCSc1nnc(-c2ccco2)o1)Nc1ccc(F)cc1 | 35.9%
CC(O)C(C(=O)OCc1ccc([N+](=O)[O-])cc1)N1C(=O)c2ccccc2C1=O (centres undefined) | 88.6%
CCOc1c2c(nc3ccc(Cl)cc13)CCC2 | 144%
CCC(CC)NC(=O)c1cccc(Br)c1 | 73.9%
COc1ccccc1/C=C1\CCCC2=C1Nc1nnnn1C2c1ccccc1OC (centres undefined) | 152%
COCC(C)NC(=O)Cc1ccc(F)cc1 (centres undefined) | 136%
CCC(C(=O)OCC(=O)Nc1cccc(OC)c1)c1ccccc1 (centres undefined) | 150%

SMILES | normalized cell count
Cc1ccc2[nH]c3c(=S)nc[nH]c3c2c1 | 146%
CCCc1cc(C(N)=O)c(NC(=O)c2ccoc2C)s1 | 95.6%
C=CCn1c(SCC(=O)Nc2nccs2)nnc1-c1cc2cccc(OC)c2o1 | 125%
O=C(c1ccc(Br)s1)N1CCCC1 | 72.3%
CN=C1SC(CC(=O)NCCc2ccc(OC)c(OC)c2)C(=O)N1C (centres undefined) | 128%
O=C(c1ccco1)N1CCN(c2nc3ccsc3c(=O)s2)CC1 | 139%
CCC(=O)c1ccc(OC(=O)c2cnccn2)cc1 | 136%
Cc1cccc(-n2ncc(C#N)c2N)c1 | 80.3%
CCCCSc1nc(C)[nH]c1[N+](=O)[O-] | 136%
CCSc1nnc(-c2ccccc2NC(C)=O)c(=O)[nH]1 | 50.6%
COC(=O)CS(=O)(=O)c1nnc([C@H](Cc2ccccc2)NC(=O)OC(C)(C)C)o1 | 14.8%
CC(=O)Nc1ccc(Nc2cc(C)nc3c(-c4ccc(Cl)cc4)cnn23)cc1 | 136%
Cc1ccc(CCNC(=O)NC(C)(C)C)cc1 | 122%
c1ccc(-c2csc3ncnc(NCC4COc5ccccc5O4)c23)cc1 (centres undefined) | 71%
CC(C)Sc1nc2ccccc2n1CC(=O)NCc1ccc2c(c1)OCO2 | 84%
COc1cc(/C=N/n2c(SC)nnc(C(C)(C)C)c2=O)ccc1O | 116%
Clc1ccc(Nc2ncn[nH]2)c(Cl)c1 | 112%
COC(=O)c1ccc2c(=O)n(-c3ccccc3F)c(=S)[nH]c2c1 | 22.7%
O=C(Cc1cc(=O)[nH][nH]1)N/N=C/c1c(Cl)cccc1Cl | 65.4%
C=CCSc1nc2ccccc2n1S(=O)(=O)c1ccc(C)cc1 | 116%
COC(=O)C1=C2SC(C)C(=O)N2C(N)=C(C#N)C1c1ccc(OC)c(OC)c1 (centres undefined) | 66.1%
COC(=O)c1ccc(C)c(NS(=O)(=O)c2ccc(OC)cc2)c1 | 2.67%
COc1cc(CN2CCN(Cc3ccc(C)cc3)C(CCO)C2)ccc1O (centres undefined) | 98.4%

SMILES | normalized cell count
NC(=O)c1oc2ccccc2c1NC(=O)c1ccco1 | 136%
CCSc1nc2ccccc2n1C(=O)c1ccc(S(=O)(=O)N2CCCCC2)cc1 | 177%
CC(C)C(=O)Nc1ccc2c(c1)nc1n2CCSC1 | 75.4%
Cc1cc(C(F)(F)F)nc(SCc2ccc(C(=O)O)o2)n1 | 134%
CCOC(=O)N1CCN(C(=O)c2ccc3nc4ccsc4c(=O)n3c2)CC1 | 159%
O=C(NCc1ccccc1)c1cc(-c2ccco2)on1 | 55.3%
CCC(Sc1nc2c(cnn2-c2ccc(Cl)cc2)c(=O)[nH]1)C(=O)OC (centres undefined) | 106%
O=C(Nc1ccc([N+](=O)[O-])cc1)Nc1nc(-c2ccc(Cl)s2)cs1 | 84.9%
Nn1c(Cc2cccc3ccccc23)nnc1SCc1ccc(Cl)c(Cl)c1 | 126%
CCOc1ccc2nc(SCC)[nH]c2c1 | 139%
Cc1nn(C)cc1/C=N\NC(=O)c1ccc(Cn2cc(Cl)cn2)cc1 | 115%
CN1CC(=O)N(CC(=O)Nc2cccc(S(=O)(=O)N3CCOCC3)c2)C1=O | 90%
Cn1c(=O)oc2cc(S(=O)(=O)N3CCN(c4ccc(F)cc4)CC3)ccc21 | 50%
COC(=O)CSc1nc(-c2ccc(C)cc2)c2c(c1C#N)CCCC2 | 86.1%
CCN(C(=O)c1ccc(C)c(Br)c1)c1ccccc1 | 125%
Cc1ccc2nc(N3CCN(Cc4nnnn4C4CCCC4)CC3)c(C#N)cc2c1 | 18.2%
CCOC(=O)c1ccccc1NC(=O)Cn1cnc2c(cnn2-c2ccc(OC)cc2)c1=O | 84.5%
COC(=O)c1cn(CCOc2ccccc2OC)c2ccccc12 | 119%
CCN(CC)C(=O)c1ccc2c(c1)N(Cc1ccccc1)C(=O)CS2=O (centres undefined) | 83.6%
CCOC(=O)c1c(N2CCCCC2)c2ccccc2[nH]c1=O | 17.1%
Cc1ccc(C)c(S(=O)(=O)N2C(=S)NC(=O)C2C(C)C)c1 (centres undefined) | 69.2%
Cc1ccc(O)c(CNn2cnnc2)c1 | 82.1%
CCC(C)N(C(=O)COC(=O)CNC(=O)c1ccccc1F)C1CCS(=O)(=O)C1 (centres undefined) | 80.1%

SMILES | normalized cell count
CCOC(=O)C(C)(C)Sc1nc2c(cnn2-c2ccc(C)cc2)c(=O)[nH]1 | 8.02%
Clc1cncc(Cl)c1N/N=C/c1ccncc1 | 171%
O=C(Oc1ccccc1)c1cccc(COC(=O)c2cnccn2)c1 | 135%
COc1ccccc1N(CC(=O)NC1CCCC1)C(=O)c1csnn1 | 126%
CCOC(=O)c1ccc(NS(=O)(=O)c2cc(-c3nnnn3CC)ccc2OC)cc1 | 149%
CC1=CC(=O)C=C(C)C1=NOc1ccc([N+](=O)[O-])cc1 | 25.7%
O=[N+]([O-])C(C1CCS(=O)(=O)C1)C1CCS(=O)(=O)C1 (centres undefined) | 47.7%
Cc1ccc(NC(=O)CSc2ccccn2)cc1S(=O)(=O)N1CCOCC1 | 70.8%
Cc1cc(C)nc(N2CCCC(C(=O)Nc3ccc4c(c3)OCO4)C2)n1 (centres undefined) | 187%
Fc1cccc(F)c1CSc1nc2ccccc2[nH]1 | 174%
CC(=O)NC1=NN(C(C)=O)C(c2ccc(F)cc2)S1 (centres undefined) | 70.3%
CCOC(=O)C1CCN(c2ncnc3nc[nH]c23)CC1 | 113%
COc1ccc2ccccc2c1C(=O)/C=C\c1ccoc1 | 64.8%
c1ccc2c(c1)Cn1c-2nc2ccccc21 | 80%
O=C1OC(N2CCN(C/C=C/c3ccccc3)CC2)c2ccccc21 (centres undefined) | 53.5%
CCOC(=O)c1c(NC(=O)CCl)sc(C(=O)N(CC)CC)c1C | 79.1%
Cc1ccnc(N2CCN(c3c4c(c(C#N)c5nc6ccccc6n35)CCC4)CC2)c1 | 130%
Clc1nnc(NN=C2CCCC2)c2ccccc12 | 100%
CCn1cc(C2=NC(C)CO2)c2ccccc21 (centres undefined) | 221%
COc1ccc(C(C(=O)NCc2ccccc2)N(Cc2ccc3c(c2)OCO3)C(=O)c2cnccn2)cc1 (centres undefined) | 92.2%
Cc1cc(C)n2nc(N)c(N=Nc3cccc(Cl)c3)c2n1 | 176%
CSc1nc2ccccc2n1C(=O)Oc1ccccc1 | 99.3%
CCc1nc(OCCN(C)C)c2oc3ccccc3c2n1 | 105%

SMILES | normalized cell count
COc1ccc(N(C(=O)CCl)C(C)(C(=O)Nc2c(C)cccc2C)c2ccccn2)cc1 (centres undefined) | 121%
Nc1cccc(-c2nc3ccccc3[nH]2)c1 | 54.4%
CCN(CC)CCN(C(=O)c1ccc2c(c1)CCCC2)c1nc2ccc(F)cc2s1 | 85.5%
Cc1ccccc1/C=N/Nc1ccnc2cc(Cl)ccc12 | 199%
Cc1cccc(NC2=C(NCCO)C(=O)c3ccccc3C2=O)c1 | 83.5%
CCOc1ccc(S(=O)(=O)Nc2ccncc2)c(C)c1C | 133%
CCCn1c(SCC(=O)N2CCc3ccccc32)nnc1-c1ccco1 | 56.6%
O=C(CS(=O)(=O)c1ccccc1)Nc1nc(-c2ccc(F)cc2)cs1 | 212%
Cc1cc(C)n(-c2cc(Cl)ccc2[N+](=O)[O-])n1 | 99.7%
CCCN=C1CC(C)(C)CC(=O)/C1=C(/O)CCCN1C(=O)c2ccccc2C1=O | 52.3%
Cn1c(=O)n(C)c2cc([N+](=O)[O-])c(N3CCN(C(=O)C(C)(C)C)CC3)cc21 | 125%
O=C(NCC1CCCO1)c1c(O)c2cccc3c2n(c1=O)CCC3 (centres undefined) | 91.1%
O=c1c2c(nc3nc(Cc4ccccc4)[nH]n13)CCC2 | 73.9%
COc1cccc(N2C(C(C)=O)=NN(c3ccccc3)C2c2ccc(N3CCOCC3)cc2)c1 (centres undefined) | 119%
CNS(=O)(=O)c1ccc(Oc2ccc(S(=O)(=O)NC)cc2)cc1 | 140%
Cc1cc(C)c2nc(NNC(=O)c3cc(-c4cccs4)nc4ccccc34)sc2c1 | 144%
Brc1ccc(-c2cn3ccccc3n2)s1 | 156%
Cc1ccc(NC(=O)Nc2cccs2)cc1 | 136%
Cn1c(Cc2ccccc2)nnc1SCC(=O)c1ccc(Br)s1 | 108%
C=CCc1cccc(CNc2c(C)n(C)n(-c3ccccc3)c2=O)c1O | 44.2%
CSc1nc(-c2ccc(Cl)cc2)nn1S(=O)(=O)c1ccc(Cl)cc1 | 146%
Cc1ccnc2nc(C(=O)OCC(=O)NCCc3ccccc3)nn12 | 129%
